The other results are listed elsewhere or left out.

The chains behind the UniProt entries cited, without tags or fusion partners. Where a name states a change or a piece, a line headed by the entry shows the natural chain unless it says otherwise.
UniProt Q9Y608: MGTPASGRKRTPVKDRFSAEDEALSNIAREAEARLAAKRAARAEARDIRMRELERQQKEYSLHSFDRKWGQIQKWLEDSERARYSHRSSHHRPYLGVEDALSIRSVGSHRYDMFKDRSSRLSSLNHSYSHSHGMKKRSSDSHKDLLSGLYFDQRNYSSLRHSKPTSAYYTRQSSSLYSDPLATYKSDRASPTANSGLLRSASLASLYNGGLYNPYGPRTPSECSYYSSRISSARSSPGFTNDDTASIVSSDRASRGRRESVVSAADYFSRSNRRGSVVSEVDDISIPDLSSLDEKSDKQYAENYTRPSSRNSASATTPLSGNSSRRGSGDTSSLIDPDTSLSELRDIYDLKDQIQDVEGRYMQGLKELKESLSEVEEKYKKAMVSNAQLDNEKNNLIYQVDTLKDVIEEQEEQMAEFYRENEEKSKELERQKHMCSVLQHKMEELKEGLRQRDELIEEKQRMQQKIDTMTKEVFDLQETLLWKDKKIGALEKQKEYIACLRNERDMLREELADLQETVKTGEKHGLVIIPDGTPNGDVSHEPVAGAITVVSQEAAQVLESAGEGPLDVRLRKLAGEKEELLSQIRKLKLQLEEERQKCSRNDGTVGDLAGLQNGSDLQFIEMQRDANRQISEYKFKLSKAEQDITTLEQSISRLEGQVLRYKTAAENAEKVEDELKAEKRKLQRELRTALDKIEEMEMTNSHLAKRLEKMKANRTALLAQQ
UniProt Q9NTJ4: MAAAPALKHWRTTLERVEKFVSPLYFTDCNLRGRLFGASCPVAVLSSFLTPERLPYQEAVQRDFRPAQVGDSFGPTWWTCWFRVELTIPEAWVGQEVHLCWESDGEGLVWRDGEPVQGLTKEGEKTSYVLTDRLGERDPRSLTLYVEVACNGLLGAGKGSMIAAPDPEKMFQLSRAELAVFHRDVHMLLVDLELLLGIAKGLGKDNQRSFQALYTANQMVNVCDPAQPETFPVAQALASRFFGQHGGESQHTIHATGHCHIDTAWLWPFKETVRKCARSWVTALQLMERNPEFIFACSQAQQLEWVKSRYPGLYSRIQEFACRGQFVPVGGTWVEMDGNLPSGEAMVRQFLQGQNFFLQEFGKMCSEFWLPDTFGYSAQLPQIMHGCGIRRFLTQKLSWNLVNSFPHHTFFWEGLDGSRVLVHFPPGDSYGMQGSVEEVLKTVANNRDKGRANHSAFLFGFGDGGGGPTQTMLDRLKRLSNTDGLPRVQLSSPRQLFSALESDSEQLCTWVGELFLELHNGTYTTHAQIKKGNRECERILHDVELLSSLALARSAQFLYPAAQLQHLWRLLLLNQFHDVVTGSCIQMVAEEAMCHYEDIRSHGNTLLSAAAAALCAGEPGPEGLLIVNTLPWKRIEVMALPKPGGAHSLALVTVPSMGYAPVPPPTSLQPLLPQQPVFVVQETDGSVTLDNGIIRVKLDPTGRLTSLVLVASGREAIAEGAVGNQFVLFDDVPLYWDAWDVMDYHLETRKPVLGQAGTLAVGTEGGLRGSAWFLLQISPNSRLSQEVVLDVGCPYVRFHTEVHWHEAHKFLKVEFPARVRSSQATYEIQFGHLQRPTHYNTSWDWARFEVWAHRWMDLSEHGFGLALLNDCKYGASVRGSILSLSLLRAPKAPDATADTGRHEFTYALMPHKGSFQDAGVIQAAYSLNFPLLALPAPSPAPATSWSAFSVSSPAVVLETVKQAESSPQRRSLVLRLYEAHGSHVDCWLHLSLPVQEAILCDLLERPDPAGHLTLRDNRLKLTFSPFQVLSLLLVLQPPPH
UniProt Q8N5G2: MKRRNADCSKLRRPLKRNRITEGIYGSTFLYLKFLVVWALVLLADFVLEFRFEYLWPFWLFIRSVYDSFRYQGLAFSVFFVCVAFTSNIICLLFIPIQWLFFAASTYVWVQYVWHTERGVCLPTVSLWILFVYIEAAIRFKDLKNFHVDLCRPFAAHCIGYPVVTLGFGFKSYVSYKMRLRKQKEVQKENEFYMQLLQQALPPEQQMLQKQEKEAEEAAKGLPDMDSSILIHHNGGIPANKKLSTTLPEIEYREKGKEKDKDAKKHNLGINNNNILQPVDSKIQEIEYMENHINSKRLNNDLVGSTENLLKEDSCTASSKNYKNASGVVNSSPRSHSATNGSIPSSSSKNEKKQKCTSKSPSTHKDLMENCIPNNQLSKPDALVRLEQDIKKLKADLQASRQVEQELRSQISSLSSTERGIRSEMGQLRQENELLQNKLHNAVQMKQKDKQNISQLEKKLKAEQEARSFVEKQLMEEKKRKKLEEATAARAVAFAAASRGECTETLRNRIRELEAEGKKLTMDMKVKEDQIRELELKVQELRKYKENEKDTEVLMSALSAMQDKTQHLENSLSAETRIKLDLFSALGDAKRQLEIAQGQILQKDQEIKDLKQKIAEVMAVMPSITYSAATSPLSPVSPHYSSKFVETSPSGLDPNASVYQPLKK
UniProt P49641: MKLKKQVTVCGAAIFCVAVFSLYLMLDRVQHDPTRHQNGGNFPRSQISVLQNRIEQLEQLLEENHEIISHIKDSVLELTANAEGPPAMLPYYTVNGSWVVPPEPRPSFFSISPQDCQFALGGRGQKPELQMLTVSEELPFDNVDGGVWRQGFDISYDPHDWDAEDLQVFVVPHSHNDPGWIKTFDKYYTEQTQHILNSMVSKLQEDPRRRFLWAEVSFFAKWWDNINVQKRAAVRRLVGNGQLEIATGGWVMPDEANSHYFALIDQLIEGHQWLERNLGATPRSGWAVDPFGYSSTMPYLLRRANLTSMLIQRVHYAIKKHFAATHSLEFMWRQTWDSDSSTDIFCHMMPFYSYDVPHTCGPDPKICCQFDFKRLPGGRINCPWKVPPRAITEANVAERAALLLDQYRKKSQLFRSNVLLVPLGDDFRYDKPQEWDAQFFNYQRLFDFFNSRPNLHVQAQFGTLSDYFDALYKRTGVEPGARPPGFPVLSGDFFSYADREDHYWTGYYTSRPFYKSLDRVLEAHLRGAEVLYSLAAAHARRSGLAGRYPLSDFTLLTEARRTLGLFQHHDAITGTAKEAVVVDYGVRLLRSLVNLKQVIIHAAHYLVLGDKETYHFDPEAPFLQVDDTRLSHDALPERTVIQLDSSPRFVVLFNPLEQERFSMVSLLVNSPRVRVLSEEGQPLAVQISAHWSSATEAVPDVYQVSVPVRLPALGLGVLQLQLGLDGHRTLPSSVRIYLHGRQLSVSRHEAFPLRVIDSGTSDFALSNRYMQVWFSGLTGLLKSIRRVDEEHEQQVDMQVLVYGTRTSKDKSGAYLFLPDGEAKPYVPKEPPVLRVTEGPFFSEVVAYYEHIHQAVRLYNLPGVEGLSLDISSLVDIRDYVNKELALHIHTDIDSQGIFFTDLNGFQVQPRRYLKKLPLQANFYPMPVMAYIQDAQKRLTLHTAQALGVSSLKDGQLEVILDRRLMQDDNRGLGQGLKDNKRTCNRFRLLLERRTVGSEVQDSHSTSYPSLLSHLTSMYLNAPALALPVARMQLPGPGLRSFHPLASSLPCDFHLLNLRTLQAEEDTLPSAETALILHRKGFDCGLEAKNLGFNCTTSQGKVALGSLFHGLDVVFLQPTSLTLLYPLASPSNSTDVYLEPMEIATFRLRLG
UniProt Q9NX47: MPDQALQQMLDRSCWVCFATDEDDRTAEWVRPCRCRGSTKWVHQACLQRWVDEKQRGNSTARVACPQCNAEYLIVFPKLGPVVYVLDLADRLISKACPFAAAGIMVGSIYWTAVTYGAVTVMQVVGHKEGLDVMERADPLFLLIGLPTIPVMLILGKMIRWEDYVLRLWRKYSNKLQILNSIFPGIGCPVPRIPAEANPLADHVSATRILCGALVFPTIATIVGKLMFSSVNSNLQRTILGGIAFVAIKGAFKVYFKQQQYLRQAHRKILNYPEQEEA
UniProt Q14244: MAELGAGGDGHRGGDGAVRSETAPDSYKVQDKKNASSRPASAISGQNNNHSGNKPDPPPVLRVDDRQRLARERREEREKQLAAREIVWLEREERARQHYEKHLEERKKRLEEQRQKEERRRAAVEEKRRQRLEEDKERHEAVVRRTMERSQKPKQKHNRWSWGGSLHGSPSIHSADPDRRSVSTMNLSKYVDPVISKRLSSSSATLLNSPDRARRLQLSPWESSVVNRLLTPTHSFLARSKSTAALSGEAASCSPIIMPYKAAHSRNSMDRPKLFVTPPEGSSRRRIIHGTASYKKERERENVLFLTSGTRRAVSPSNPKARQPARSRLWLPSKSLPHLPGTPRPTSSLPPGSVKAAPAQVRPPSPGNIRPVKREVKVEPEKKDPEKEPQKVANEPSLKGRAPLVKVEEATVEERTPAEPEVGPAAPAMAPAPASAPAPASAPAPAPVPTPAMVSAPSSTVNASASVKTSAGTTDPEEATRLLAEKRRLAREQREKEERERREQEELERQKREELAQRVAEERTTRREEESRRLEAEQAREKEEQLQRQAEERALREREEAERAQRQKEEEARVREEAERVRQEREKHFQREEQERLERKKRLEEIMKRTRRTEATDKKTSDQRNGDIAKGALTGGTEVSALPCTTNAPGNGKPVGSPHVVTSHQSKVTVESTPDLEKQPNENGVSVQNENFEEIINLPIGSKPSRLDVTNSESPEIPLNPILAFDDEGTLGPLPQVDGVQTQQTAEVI
UniProt Q9UKM7: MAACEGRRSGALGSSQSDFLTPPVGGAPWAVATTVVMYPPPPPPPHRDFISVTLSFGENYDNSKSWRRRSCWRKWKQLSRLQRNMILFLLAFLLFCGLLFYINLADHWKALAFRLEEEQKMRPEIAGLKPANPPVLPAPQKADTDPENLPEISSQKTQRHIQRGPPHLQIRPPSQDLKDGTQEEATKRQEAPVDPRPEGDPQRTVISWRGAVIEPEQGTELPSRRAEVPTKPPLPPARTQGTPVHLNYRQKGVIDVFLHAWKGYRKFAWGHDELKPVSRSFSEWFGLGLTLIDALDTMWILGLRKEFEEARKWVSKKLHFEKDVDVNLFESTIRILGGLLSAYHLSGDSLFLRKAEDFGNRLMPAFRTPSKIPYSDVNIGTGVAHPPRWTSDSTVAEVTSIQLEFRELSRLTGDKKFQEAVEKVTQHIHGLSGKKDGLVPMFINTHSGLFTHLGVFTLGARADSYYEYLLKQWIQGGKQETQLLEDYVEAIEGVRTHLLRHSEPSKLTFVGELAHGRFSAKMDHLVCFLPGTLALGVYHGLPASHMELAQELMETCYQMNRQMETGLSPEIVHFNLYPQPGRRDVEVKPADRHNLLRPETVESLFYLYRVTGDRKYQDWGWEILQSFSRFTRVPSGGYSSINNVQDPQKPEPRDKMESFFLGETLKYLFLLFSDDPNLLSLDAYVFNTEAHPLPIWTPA
UniProt Q8IWT6: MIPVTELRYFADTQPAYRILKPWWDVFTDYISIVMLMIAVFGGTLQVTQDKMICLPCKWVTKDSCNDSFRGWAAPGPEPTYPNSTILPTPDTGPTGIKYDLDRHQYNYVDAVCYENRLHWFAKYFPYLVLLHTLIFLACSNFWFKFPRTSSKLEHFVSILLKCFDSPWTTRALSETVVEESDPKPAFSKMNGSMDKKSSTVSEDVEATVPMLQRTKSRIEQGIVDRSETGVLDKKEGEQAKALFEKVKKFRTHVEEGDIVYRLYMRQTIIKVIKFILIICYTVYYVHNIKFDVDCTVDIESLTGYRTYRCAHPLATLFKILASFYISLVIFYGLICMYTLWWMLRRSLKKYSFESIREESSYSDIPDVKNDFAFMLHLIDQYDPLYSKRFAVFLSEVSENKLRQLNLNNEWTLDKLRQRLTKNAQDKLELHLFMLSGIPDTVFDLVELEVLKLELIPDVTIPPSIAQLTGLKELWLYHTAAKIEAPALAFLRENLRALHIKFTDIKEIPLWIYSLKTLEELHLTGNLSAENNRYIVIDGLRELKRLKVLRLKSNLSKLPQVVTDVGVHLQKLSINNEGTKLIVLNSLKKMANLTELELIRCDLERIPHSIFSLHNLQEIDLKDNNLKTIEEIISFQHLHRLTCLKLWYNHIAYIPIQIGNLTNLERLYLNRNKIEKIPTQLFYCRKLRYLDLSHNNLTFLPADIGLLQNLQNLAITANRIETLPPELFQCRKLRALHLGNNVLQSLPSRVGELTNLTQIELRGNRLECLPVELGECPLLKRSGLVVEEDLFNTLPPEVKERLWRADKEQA
UniProt Q9H0U3: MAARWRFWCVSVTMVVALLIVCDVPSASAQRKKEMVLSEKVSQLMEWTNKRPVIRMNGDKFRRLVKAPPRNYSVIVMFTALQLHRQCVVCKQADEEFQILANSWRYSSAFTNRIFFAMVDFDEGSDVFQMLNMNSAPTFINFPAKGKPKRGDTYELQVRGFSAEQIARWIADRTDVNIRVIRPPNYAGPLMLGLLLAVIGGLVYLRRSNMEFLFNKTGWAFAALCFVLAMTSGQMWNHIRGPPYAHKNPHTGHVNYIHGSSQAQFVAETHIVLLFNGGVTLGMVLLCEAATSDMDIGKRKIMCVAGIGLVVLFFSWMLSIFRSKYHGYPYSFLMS
UniProt Q9Y333: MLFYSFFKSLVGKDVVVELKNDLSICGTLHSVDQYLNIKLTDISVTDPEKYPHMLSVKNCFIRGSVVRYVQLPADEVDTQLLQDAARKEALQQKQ

Compound in the first test: CC(C)(O)CC(=O)NCCn1ccc2ncnc(Nc3ccc(Oc4cccc(C(F)(F)F)c4)c(Cl)c3)c21
Nature of the test: log2 fold change, soluble protein after heating vs DMSO (PISA); higher = thermal stabilisation; K562 cells, 10 uM, 30 min; active = over 0.2 and 3.5 SD of the protein, either way, in both replicates (recomputed). The method in brief: (§1)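 K562 cells at 2×10^6 cells/mL were treated for 30 min with 10 μM compound, and aliquots were heated for 3 min over 48°C-58°C before pooling. Extraction used PBS with 0.5% NP-40 at 4°C, and soluble protein was the supernatant after 21,000xg for 90 min, measured by TMTpro 16plex LC-MS/MS with channel sums equalised. Thermal stability values, relative to control samples and from duplicates, are log2 fold changes.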
Turning to LYZ (UniProt P61626), the log2 fold change was inactive: 0.029. Regarding MAP2K4 isoform 2 (UniProt P45985), the log2 fold change was inactive: -0.071.

On to LRRFIP2 (UniProt Q9Y608), for which the log2 fold change was inactive: -0.022. On the same count and under the same terms, to MAN2C1 isoform 4 (UniProt Q9NTJ4) belongs inactive: -0.015. On the same count and under the same terms, the result for LRSAM1 (UniProt Q6UWE0) reads inactive: -0.067. As to MAN2A1 (UniProt Q16706), the log2 fold change was inactive: 0.056. As for LSM4 (UniProt Q9Y4Z0), the log2 fold change is inactive: -0.01.

For the target MAPK1 (UniProt P28482), the log2 fold change is inactive: -0.025. On to MACO1 (UniProt Q8N5G2), for which the log2 fold change was inactive: -0.054. MAN2A2 (UniProt P49641): the log2 fold change is inactive: -0.009. The same measure, in the same setting: to MALSU1 (UniProt Q96EH3) belongs inactive: 0.006; to MANF (UniProt P55145), inactive: -0.025; to MARCHF5 (UniProt Q9NX47), inactive: 0.049. On the same count and under the same terms, to MAP7 isoform 7 (UniProt Q14244) belongs inactive: 0.103. MAN1B1 (UniProt Q9UKM7): the log2 fold change was inactive: -0.065. With MAD2L1BP isoform 3 (UniProt Q15013), the log2 fold change was inactive: -0.123. On to MAPRE1 (UniProt Q15691), for which the log2 fold change is inactive: -0.028. In the case of LSM3 (UniProt P62310), the log2 fold change was inactive: 0.04. LYAR (UniProt Q9NX58): the log2 fold change is inactive: 0.224.

LSM7 (UniProt Q9UK45): the log2 fold change is inactive: -0.024.

Compound in the next test: CC(C)C1=C2N=C(C=C(N2N=C1)NCC3=CC=CC=C3)NCCCCCCN
The test is described as above. The method in brief:
as §1
Turning to LYRM4 (UniProt Q9HD34), the log2 fold change was inactive: 0.008. On to MAGEB2 (UniProt O15479), for which the log2 fold change was inactive: -0.071. Consider MAP1A isoform 2 (UniProt P78559), for which the log2 fold change was inactive: -0.108.

On to MANBA (UniProt O00462), for which the log2 fold change is inactive: -0.042. Consider MAP7D1 (UniProt Q3KQU3), for which the log2 fold change was inactive: -0.021. For the target MAEA (UniProt Q7L5Y9), the log2 fold change is inactive: 0.005. Turning to MARCHF6 (UniProt O60337), the log2 fold change was inactive: -0.154.

LRRC8A (UniProt Q8IWT6): the log2 fold change is inactive: 0.007.

For MAGT1 (UniProt Q9H0U3), the log2 fold change was inactive: -0.028. Same read-out and setting: to M6PR (UniProt P20645) belongs inactive: 0.06.

On to LSM6 (UniProt P62312), for which the log2 fold change was inactive: 0.099. LSM2 (UniProt Q9Y333): the log2 fold change is inactive: 0.063. For the target MACF1 (UniProt H3BQK9), the log2 fold change is inactive: -0.23. LYZ (UniProt P61626): the log2 fold change was inactive: -0.209. Same read-out and setting: the result for MAP2K4 isoform 2 (UniProt P45985) reads inactive: 0.006; that for LRRFIP2 (UniProt Q9Y608), inactive: 0.041. As for MAN2C1 isoform 4 (UniProt Q9NTJ4), the log2 fold change was inactive: 0.111. Consider LRSAM1 (UniProt Q6UWE0), for which the log2 fold change is inactive: -0.074. With MAN2A1 (UniProt Q16706), the log2 fold change is inactive: 0.005. Regarding LSM4 (UniProt Q9Y4Z0), the log2 fold change is inactive: 0.107. On to MAPK1 (UniProt P28482), for which the log2 fold change is inactive: 0.015. Consider MACO1 (UniProt Q8N5G2), for which the log2 fold change was inactive: -0.104. Regarding MAN2A2 (UniProt P49641), the log2 fold change was inactive: 0.031. Turning to MALSU1 (UniProt Q96EH3), the log2 fold change was inactive: -0.05. In the case of MANF (UniProt P55145), the log2 fold change is inactive: 0.031.

With MARCHF5 (UniProt Q9NX47), the log2 fold change is inactive: 0.056. Still for that read-out and setting: to MAP7 isoform 7 (UniProt Q14244) belongs inactive: 0.156. As to MAN1B1 (UniProt Q9UKM7), the log2 fold change was inactive: -0.078. Take MAD2L1BP isoform 3 (UniProt Q15013): the log2 fold change is inactive: 0.008. As to MAPRE1 (UniProt Q15691), the log2 fold change is inactive: -0.044.

In the case of LSM3 (UniProt P62310), the log2 fold change is inactive: 0.064. Consider LYAR (UniProt Q9NX58), for which the log2 fold change is inactive: 0.584. As for LSM7 (UniProt Q9UK45), the log2 fold change was inactive: 0.039.

These data come from the supplement of paper PMC10849652.
